This passage reports log2 fold change results from the supplement of paper PMC12819154, “High-throughput peptide-centric local stability assay extends protein–ligand identification to membrane proteins, tissues and bacteria” (Nature Structural & Molecular Biology, 2025).

Chains of the proteins cited; added tags and fusions are not shown. Lines headed by an entry give the natural chain unless they say otherwise; changes in a name come on top.
UniProt Q6NZB1, whole entry: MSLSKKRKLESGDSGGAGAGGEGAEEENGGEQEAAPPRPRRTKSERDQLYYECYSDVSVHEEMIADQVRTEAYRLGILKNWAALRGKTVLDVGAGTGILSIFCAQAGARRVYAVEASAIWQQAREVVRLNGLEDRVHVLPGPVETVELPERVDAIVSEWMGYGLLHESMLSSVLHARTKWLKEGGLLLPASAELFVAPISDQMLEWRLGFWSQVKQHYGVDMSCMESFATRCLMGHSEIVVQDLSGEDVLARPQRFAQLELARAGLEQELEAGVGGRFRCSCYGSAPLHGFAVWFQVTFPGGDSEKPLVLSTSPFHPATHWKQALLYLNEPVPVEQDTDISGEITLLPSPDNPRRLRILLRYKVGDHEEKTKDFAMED
UniProt Q6P6I6, whole entry: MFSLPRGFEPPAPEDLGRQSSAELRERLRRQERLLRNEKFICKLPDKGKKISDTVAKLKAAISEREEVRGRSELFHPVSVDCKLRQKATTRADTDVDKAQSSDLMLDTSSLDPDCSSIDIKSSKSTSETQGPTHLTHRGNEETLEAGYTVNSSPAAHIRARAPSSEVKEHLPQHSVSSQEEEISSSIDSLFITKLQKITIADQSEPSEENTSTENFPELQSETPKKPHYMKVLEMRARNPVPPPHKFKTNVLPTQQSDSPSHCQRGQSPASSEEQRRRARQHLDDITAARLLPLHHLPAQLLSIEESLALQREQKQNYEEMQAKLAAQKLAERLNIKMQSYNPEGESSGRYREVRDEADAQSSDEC
UniProt Q6PIX5: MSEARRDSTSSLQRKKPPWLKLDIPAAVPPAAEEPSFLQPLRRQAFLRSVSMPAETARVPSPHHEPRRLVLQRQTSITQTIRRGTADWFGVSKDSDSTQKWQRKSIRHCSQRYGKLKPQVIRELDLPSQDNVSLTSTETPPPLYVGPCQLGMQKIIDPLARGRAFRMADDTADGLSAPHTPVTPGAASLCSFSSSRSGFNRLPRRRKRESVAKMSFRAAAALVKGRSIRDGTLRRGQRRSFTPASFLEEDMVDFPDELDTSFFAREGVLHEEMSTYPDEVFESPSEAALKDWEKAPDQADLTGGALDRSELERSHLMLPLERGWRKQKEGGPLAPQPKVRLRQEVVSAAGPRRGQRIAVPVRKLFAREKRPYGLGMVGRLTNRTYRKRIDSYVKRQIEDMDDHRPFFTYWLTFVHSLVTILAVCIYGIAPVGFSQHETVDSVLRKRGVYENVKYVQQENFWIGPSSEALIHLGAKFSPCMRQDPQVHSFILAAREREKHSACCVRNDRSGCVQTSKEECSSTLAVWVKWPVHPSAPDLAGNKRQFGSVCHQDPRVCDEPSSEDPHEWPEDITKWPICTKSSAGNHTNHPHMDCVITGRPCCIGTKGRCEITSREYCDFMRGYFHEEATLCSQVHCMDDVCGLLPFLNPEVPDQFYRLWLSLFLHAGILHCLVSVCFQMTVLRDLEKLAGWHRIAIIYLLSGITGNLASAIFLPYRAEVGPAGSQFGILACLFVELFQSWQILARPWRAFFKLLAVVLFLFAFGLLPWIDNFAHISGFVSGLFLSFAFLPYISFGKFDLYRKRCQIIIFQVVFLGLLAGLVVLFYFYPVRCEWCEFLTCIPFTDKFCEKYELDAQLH
UniProt Q6BCL1: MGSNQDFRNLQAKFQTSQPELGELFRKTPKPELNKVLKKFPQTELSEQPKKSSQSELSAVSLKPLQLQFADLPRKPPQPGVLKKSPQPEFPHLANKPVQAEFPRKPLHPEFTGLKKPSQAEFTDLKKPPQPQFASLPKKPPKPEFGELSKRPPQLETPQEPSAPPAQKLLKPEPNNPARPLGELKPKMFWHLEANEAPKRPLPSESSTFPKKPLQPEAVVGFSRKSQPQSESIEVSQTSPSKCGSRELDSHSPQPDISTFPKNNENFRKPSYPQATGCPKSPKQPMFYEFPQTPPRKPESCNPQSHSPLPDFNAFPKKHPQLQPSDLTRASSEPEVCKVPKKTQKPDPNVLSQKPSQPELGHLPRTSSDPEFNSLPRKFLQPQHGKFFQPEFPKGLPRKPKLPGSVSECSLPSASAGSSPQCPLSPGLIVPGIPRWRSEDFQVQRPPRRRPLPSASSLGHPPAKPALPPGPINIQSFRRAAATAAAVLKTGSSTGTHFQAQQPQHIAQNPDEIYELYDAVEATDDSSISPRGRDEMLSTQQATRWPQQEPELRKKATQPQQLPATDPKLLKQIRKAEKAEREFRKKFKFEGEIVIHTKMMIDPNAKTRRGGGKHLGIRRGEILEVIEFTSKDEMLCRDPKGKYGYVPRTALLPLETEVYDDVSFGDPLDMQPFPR

This is one part of the list. Most entries show no effect beyond the scatter of the controls.

Compound in this assay: CN[C@@H]1C[C@H]2O[C@@](C)([C@@H]1OC)n1c3ccccc3c3c4c(c5c6ccccc6n2c5c31)C(=O)NC4 [staurosporine]
Description: log2 fold change of tryptic peptide abundance, ligand vs vehicle (limited proteolysis) (log2 ratio); higher = more trypsin-susceptible (destabilized). Particulars: ligand concentration: 20 uM; sample: mouse liver crude lysate; replicate design: treated separately.
As to “UniProt Q6P8G8 (peptide sequence: GYLDLMGASQHSLR, peptide start residue: 34)”, the log2 fold change was -0.235.
In the case of “UniProt Q6NZB1 (peptide sequence: LGFWSQVK, peptide start residue: 208)”, the log2 fold change is -0.0898.
The figure for “UniProt Q6P6I6 (peptide sequence: FICKLPDK, peptide start residue: 40)” is 0.378; for “UniProt Q6PIX5 (peptide sequence: AAAALVK, peptide start residue: 218)” it is -0.278.
To “UniProt Q6BCL1 (peptide sequence: KPPKPEFGELSK, peptide start residue: 139)” belongs -0.447.
